Laboratory results reported in patent US20050113455A1, “Method and composition for amelioration of pain” (priority 2003, published 2005).
Some results were stated once for a whole list of compounds, not compound by compound. At least one structure is not confirmed: it was looked up by name or label, or the drawing left a doubt.

Test system: visceral nociception (stretching) in mice
Assay: Murine visceral pain model: stretching in mouse i.p. acetic acid test
Assay type: in vivo
Conditions: s.c. administration; summary of Table 1
Experimental: Dose-response relationships for the polyamines listed in Table 1 were performed in the mouse i.p. acetic acid test.
Assessment of Candidate Agents in a Murine Visceral Pain Model: There is an extensive literature on visceral pain in the acetic acid mouse model (Bidlack J M, Cohen D J, McLaughlin J P, Lou R, Ye Y, Wentland M P. 8-carboxamidocyclazocine: A long-acting, novel benzomorphan. J Pharmacol Exp Ther. 2002;302:374-380; Reichert J A, Daughters R S, Rivard R, Simone D A. Peripheral and preemptive opioid antinociception in a mouse visceral pain model. Pain. 2001;89:221-227; Farzin D, Asghari L, Nowrouzi M. Rodent antinociception following acute treatment with different histamine receptor agonists and antagonists. Pharmacol Biochem Behav. 2002;72:751-760; Hinschberger A, Butt 5, Lelong V, Boulouard M, Dumuis A, Dauphin F, Bureau R, Pfeiffer B, Renard P, Rault S. New benzo[h][1,6]naphthyridine and azepino[3,2-c]quinoline derivatives as selective antagonists of 5-ht4 receptors: Binding profile and pharmacological characterization. J Med Chem. 2003;46:138-147).
The mice receive either an s.c. or i.p. injection (0.3 mL) of either saline or a test drug at varying doses. Fifteen to thirty minutes following the treatment, the animals receive an i.p. injection of 0.6% acetic acid in saline (sterile, 0.3 mL). The mice are then placed into holding cages and observed for 30 mm. The number of stretches the animals make following the acetic acid injections are counted. A stretch is identified by the animal extending its hind legs well behind its body. This posture is rarely seen in a non-injected animal.

Compound | Effective dose in the murine visceral pain model
dihydroxydiethylnorspermine [(HO)2DENSPM] | less than 0.005 mg/kg
CCCCNCCCNCCCCNCCCNCCCC [DBSPM, N^1N^11-dibutylspermine] | 0.1 to 0.4 mg/kg
CCNCCCN[C@H]1CC[C@H](NCCCNCC)CC1 [CHX(3,4,3)-trans, N,N′-bis[3-(ethylamino)propyl]-trans-1,4-cyclohexanediamine] | less than 0.005 mg/kg
CCNCCCNCCCNCCCNCC [DENSPM, N^1,N^11-diethylnorspermine] | 0.1 to 0.4 mg/kg
